The results in this text go back to publication PMC5185470 (Bioorganic & medicinal chemistry letters, 2016).

Sequences of proteins named here, by UniProt entry; tags and fusion partners are left off. Residues count along the entry.
UniProt P06276, 29-602: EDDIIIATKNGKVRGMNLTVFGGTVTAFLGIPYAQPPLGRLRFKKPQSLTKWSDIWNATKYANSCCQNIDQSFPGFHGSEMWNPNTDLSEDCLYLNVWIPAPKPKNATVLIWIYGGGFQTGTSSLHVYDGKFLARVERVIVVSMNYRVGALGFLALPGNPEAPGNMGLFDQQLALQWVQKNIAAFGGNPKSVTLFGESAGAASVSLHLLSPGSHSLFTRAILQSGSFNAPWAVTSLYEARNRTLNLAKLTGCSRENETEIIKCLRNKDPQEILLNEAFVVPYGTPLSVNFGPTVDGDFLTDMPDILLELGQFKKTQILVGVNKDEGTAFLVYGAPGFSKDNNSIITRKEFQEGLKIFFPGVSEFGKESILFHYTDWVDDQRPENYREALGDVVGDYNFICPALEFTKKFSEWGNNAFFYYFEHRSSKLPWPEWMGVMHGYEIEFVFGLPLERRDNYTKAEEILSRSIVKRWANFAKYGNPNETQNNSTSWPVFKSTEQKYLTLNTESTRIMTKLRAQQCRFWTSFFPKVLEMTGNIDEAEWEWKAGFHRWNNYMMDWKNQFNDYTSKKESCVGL

The experiment addresses BuChE (Homo sapiens, UniProt P06276). In words: biochemical.

On to `CN(C)Cc1ccc(CSCCN2C(=O)c3cccc([N+](=O)[O-])c3C2=O)o1` [Compound 30], for which the 50% inhibitory concentration (IC50) (as a rule, the concentration that inhibits the measured activity by half) was over 50 µM.
